{
  "source": "paper PMC10766641",
  "biological_target": "T1, Flag-OGT (O-GlcNAc transferase) (human (cDNA from THP-1 cells)) (UniProt O15294)",
  "T1 sequence": "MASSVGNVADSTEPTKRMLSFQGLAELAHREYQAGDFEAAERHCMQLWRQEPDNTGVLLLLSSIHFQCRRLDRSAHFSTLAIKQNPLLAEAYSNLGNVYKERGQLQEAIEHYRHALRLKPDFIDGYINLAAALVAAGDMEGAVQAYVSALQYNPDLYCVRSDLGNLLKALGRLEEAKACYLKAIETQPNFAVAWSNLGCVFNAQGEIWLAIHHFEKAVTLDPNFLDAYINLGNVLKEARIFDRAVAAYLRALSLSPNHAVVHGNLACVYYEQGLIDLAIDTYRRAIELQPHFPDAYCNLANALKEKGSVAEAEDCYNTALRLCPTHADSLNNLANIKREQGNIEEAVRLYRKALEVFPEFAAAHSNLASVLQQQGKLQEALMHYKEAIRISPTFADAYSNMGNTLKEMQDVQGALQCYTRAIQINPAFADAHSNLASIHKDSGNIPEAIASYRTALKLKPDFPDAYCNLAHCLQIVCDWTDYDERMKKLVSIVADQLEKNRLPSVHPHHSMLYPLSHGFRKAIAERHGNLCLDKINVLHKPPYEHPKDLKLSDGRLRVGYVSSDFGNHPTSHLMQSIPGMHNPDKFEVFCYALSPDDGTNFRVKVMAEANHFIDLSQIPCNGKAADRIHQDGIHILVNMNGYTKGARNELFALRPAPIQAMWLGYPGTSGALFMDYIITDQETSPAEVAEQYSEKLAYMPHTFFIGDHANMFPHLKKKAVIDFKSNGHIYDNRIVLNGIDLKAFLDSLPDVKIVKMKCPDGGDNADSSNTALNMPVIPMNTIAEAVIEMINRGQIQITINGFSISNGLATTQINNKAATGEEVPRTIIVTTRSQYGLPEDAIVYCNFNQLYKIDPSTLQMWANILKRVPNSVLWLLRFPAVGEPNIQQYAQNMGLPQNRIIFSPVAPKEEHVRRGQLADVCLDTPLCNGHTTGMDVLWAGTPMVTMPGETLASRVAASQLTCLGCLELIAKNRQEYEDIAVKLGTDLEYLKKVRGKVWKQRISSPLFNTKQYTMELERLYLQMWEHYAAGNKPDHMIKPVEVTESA",
  "experiment": "co-IP; HEK293T cells co-transfected with tagged plasmids (in some panels also Myc-SOCS3 or Myc-CUL5); lysed in cold RIPA buffer with protease inhibitors; antibodies and Protein G Agarose beads overnight at 4 °C; immunoblot",
  "note": "These are yes or no findings as the source states them, for the method shown. In cells and extracts the contact can be indirect. Tags and fused reporters may be left off the sequences shown.",
  "data": [
    {"substance": "Myc-CUL5 ΔCH + ΔNEDD (domain or fragment)", "values": [
      {"measurement": "binding", "value": "no binding"}
    ]}
  ]
}
